Data taken from US20210322455A1.
No constants are given. Whether binding was seen depends on the method and setting. Some entries that bind do so weakly or less than the wild type.

Chains of the proteins cited; added tags and fusions are not shown. Lines headed by an entry give the natural chain unless they say otherwise; changes in a name come on top.
UniProt P20152: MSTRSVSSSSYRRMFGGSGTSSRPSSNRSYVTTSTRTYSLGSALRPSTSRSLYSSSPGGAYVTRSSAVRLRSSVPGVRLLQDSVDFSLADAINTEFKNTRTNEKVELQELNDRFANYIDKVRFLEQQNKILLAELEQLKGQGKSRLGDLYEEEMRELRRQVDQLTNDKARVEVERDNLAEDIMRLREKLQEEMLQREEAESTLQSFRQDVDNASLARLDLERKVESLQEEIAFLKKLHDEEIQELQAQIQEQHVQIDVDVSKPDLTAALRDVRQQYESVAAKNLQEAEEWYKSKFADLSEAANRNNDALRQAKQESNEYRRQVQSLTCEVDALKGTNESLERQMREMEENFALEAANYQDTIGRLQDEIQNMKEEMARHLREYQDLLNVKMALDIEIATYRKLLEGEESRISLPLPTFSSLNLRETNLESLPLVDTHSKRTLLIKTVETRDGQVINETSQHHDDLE
UniProt Q02111: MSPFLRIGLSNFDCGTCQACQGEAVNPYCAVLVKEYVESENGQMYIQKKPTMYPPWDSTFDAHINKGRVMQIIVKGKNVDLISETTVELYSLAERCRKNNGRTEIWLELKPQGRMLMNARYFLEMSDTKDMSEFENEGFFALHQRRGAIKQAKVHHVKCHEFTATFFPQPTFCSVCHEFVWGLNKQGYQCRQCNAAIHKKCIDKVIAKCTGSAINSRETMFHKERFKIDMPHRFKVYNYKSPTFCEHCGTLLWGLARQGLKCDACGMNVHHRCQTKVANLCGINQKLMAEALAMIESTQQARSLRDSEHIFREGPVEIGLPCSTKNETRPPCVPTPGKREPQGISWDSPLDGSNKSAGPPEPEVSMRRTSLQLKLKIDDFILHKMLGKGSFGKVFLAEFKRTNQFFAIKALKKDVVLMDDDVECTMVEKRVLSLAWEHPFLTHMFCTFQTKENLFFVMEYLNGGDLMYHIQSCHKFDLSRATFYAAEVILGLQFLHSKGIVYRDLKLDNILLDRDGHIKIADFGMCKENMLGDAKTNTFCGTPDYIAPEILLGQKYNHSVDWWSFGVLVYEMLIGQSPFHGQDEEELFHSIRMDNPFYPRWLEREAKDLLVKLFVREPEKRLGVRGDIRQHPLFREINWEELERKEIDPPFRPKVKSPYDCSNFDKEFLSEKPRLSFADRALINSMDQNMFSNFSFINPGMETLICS

Target: vimentin (mouse) (UniProt P20152)
Assay: confocal microscopy of PKC-θ and vimentin staining in Tregs after 5 minutes of anti-CD3/CD28 mAb activation

- binding: binds
Substance: Protein kinase C-theta (PKC-θ) (from UniProt Q02111 1-707) (enzyme)
